Our source for the z-score values is PubChem BioAssay AID1508600 (Functional Genomics Laboratory (NCATS/FGL), 2020).

About 3,700 (7%) of roughly 53,000 sequences were called active.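 How the source made its calls: active means gene knockdowns whose robust z-score for IL-1 alpha signal is at least 2 or at most -2, so actives lie on both sides; inactive means the rest.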 Some of the results follow.

A short description of the assay: Components of the Cytosolic LPS Sensing Pathway: Gene Identification via Genome-wide siRNA Screen. As to conditions: RAW264.7 macrophages, IL-1a HTRF, actives lie on both sides, screened at 100 nM (by protocol), cells primed 5 h with Pam3CSK4 first. From the text: Non-canonical inflammasome activation by cytosolic LPS is a critical component of the host response to Gram-negative bacterial infection, however we lack a comprehensive understanding of the cellular processes that control this pathway. Here we describe a genome-wide siRNA screen to identify genes regulating the mouse macrophage IL-1 alpha response to cytosolic LPS.
RAW264.7 cells were maintained in complete DMEM media, comprising DMEM with 4.5 g/L glucose, 10% FBS (Gemini Bio-Products, West Sacramento, CA), 2 mM Glutamine (Lonza) and 20 mM HEPES (Lonza), hereafter complete DMEM.
The RNAi screen was conducted in 384-well format using the Ambion Silencer Mouse Genome siRNA Library (#4391425), which consists of three unique, nonoverlapping, nonpooled siRNAs for each of 17,000 gene targets. siRNA reagents ([…]) were stamped into 384-well white flat-bottom microplates (Corning, 3570) using a Velocity11 VPrep liquid handling system (Agilent) integrated into a BioCel robotic platform (Agilent) in columns 1-22, leaving columns 23-24 empty for negative (Ambion, Negative control #1) and positive (mouse Casp4) controls, respectively. The median value of each plate's negative control column was used to normalize sample wells, and the positive control was used to assess transfection efficiency and assay performance.
Lipofectamine RNAiMAX Transfection Reagent ([…]; Invitrogen) was added in […] serum-free, antibiotic-free media to plate wells using a Thermo Scientific Matrix WellMate and Microplate Stacker. Plates were incubated for 45 min at room temperature to allow for the sufficient formation of siRNA-lipid complexes. Cells were seeded at a density of 1x10^4 cells per well in 20 microL media containing 20% (vol/vol) FBS without antibiotics. The final concentration of siRNA in each well was 100 nM. Cells were cultured for 48h at 37 degrees C in 5% CO2 before addition of […] of TLR ligand Pam3CSK4 for 5 hours. The medium was then removed, replaced with […] growth media and cell were transfected with […] of LipidA and TransIT-TKO (Mirus) for 24 hour. At the end of the LipidA treatment, […] of supernatant was transferred to a 384 Greiner Bio-one non-binding low volume plate and […] of IL-1a HTRF reagent (Cisbio, 62MIL1APEH) was added and incubated at room temperature overnight. The plates were read on an EnVision plate reader (PerkinElmer). Cell viability was measured by adding 20ul Cell Titer Glo to the original plate and running a luminescence read on the EnVision. The quantified IL-1a signal for each siRNA gene-targeted well was divided by the median of the negative control wells and multiplied by 100 to achieve a negative control normalized value for each well/siRNA. This normalized value was then used to generate a robust z-score by first taking the log of each value and then by subtracting the median and dividing by the […].
(In general: TR-FRET usually uses a lanthanide donor and a delayed reading to cut background.)
With GGCCCAGGUGGAUAGUUAUTT against Cep120, the z-score is active: 2.03.
The value for GGACAACAUCUUCAAAGGATT against Slc12a1 was inactive: 0.617; that for GGACAAACGGGAAAAGAAGTT against Sprr2d was active: -2.04.
As for GGAGAACUGAAAGACGUGCTT against Vgll1, the z-score was inactive: -0.427.
The value for GGAAGACCAGCAGUUAAGATT against Grb10 was inactive: -1.56; that for GGUAAAAUAUAGUUUGCGCTT against Abca14 was inactive: 1.06; that for CGCAUACAUCAGGUCACUATT against Katnb1 was inactive: -0.74.
As for GGAGAUUCUUCUCAUUGGCTT against Gmppa, the z-score was inactive: -0.491.
As for GGAAGAACACAAGUGUUUUTT against Trem3, the figure is inactive: -0.626.
The value for CCAGUGUAAUCGAGUGUGATT against Atp10a was inactive: 0.909; that for GCUGGGUGAACUUACAGGATT against Wars2 was inactive: 0.567; that for GCCCAUGUUUUUUUUUCUGTT against Olfr648 was inactive: 0.776.
The value for GGACUCAAAUGUGAUGCAUTT against Prkcq was inactive: -0.718.
In the case of GGACAUCGCAUGUUUGAAATT against Fam72a, the z-score is inactive: 0.496.
As for GCUGACCUCAAUGACUACATT against Ccl9, the figure is inactive: -0.17; as for CCUUUCAAUGACUACGAUUTT against Rnase9, inactive: -0.425.
GGUUCAAGCAGGUCAAAGUTT against Acbd6: the z-score is inactive: -1.36.
As for GGCUGACAGUGGAGUCUAUTT against Ceacam9, the figure is inactive: -0.114; as for GGAUAUGUCAGCAUAUGUGTT against Yeats4, inactive: -0.583.
For the sequence GCUGACUUCAGUUGUGGCATT against Baz2a, the z-score was inactive: -1.42.
The value for GGGUUGUUCGGAGGAAACATT against Napb was inactive: -0.423; that for GGAAUGUGAAGAAGAAAUUTT against Dnttip2 was active: 2.03.
In the case of GGAGUAUGUCAAUUAGCAUTT against Vmn1r229, the z-score is inactive: 0.189.
As for CCUUCAAAUGAACUCUACUTT against Fcer1a, the figure is inactive: 0.0774; as for GGGAAAAACUCUGUGUGUATT against Coasy, inactive: -0.25.
The value for GGAUGUUCUACUGCUACACTT against Dtwd1 was inactive: -0.706; that for GGUACAUAUUACAUUCUUCTT against Cldn12 was inactive: -0.408; that for GGUGCUAAAUAAGACAAUGTT against Psma4 was inactive: -1.76.
As for CGAAGGGAAGCAAAAUACATT against Bend5, the z-score was active: 2.11.
For the sequence CACCGAGUAUAUCUAUAAUTT against Ear14, the z-score was inactive: 0.131.
CCAUGAUCAAGAUUGUGCUTT against Slc29a1: the z-score is inactive: -1.86.
The value for GCUAACCAGUGAUCCUACATT against Olfr846 was inactive: 0.471; that for GCCGGAGUGCACAAUCAAATT against Rarres2 was inactive: 0.908.
As to GCUACUAGAGGAGAUGGACTT against Sart1, the z-score is inactive: 0.466.
In the case of GGACAUGUCUCAGGAAAACTT against Btc, the z-score is inactive: -0.446.
With GGCAAUUGCACCAUUGAAUTT against Megf9, the z-score was inactive: 0.494.
The value for GGAAAACAUACUGCUUUGATT against Abhd17c was inactive: 1.93; that for GGUUUGAAUCAAAUUGUACTT against Hyou1 was inactive: -1.12; that for GGAUGCUACAACACUCUACTT against Flrt3 was inactive: 1.53.
For the sequence GCUUAUUUCAAAAAGGGAGTT against Mal2, the z-score is inactive: -1.11.
The value for CCAAAAGUCCGAUAUGAAATT against Ints9 was inactive: -0.888; that for GCAAUUCAGGUUUACUACATT against Fgg was inactive: 0.00733.
As for GGCUGAAAUAUGAAAUUGCTT against Cyth3, the figure is inactive: -1.21.
As for GCAUAGUCCUGUGCUUACCTT against Sfmbt2, the figure is inactive: -0.267; as for GGCCUAAAGGCACAAUCUGTT against Nanos1, inactive: -0.937; as for CGAUGGACUUUUCGUUAACTT against Jun, inactive: 1.79.
As for GGAGACUCCUAAGAAGCAGTT against Cc2d1a, the z-score is inactive: 0.445.
The value for CCCAAGAAACUUCGCUUCCTT against Ehmt1 was inactive: -0.551.
The value for GGAGCUCAAGAGCUGGGUUTT against Tor2a was inactive: -1.1; that for GGCCUUUGAACACACUCCATT against G6pc2 was inactive: -1.31; that for GGUGGUGAUAAGCUUCCUCTT against Olfr1417 was inactive: -1.87.
As for GGACGUGAACAAAAGAAGGTT against Scel, the figure is inactive: -0.647; as for CCCAAAAACGUGACAUCUUTT against Inppl1, inactive: 0.901; as for GGCGUAUGUUCGCUUGGCUTT against Rpl23a, inactive: -0.0475.
On to GCAAGAGCAUGCUUACGGUTT against Ccl1, for which the z-score is inactive: -0.324.
For the sequence GCACCUACUGAUUGAACGCTT against S100g, the z-score is inactive: 1.77.
On to GGUCCAGCAUUUGAAAUUATT against Moap1, for which the z-score was inactive: 0.291.
The value for GCCAAGAGCACAUCUGCUATT against Suco was inactive: -1.65; that for GCCAAUUGAAGGAUAUCUUTT against Ocm was inactive: -0.752.
As for GGUUCUUUGUAUUGAUCAATT against Adamts20, the figure is inactive: 0.632.
As for GGAACACACCUGUUAUGAUTT against Prkag3, the figure is inactive: 0.0533.
For CGCGUAUAGAACAUUAAUCTT against Cdc14b, the z-score was inactive: 0.716.
As for “CCAGAAUGUAUCCAGGCCUTT against St6galnac4”, the figure is inactive: -0.445; as for CCAUCUAUACCCUGGACGATT against Galr2, inactive: -0.168; as for GGAGCUGAUAGGACUGAUGTT against Snap47, active: 2.16.
As for GCUGGAUGCGACAAUCUGATT against Aqp11, the figure is inactive: 0.913; as for GGAGCAUUUGUUUCCAAGATT against Cd38, inactive: -1.33; as for GGCAUUAACCAUGAGUGUATT against Zfp423, inactive: -0.861.
ACUGACCUUUGUUCCACAUTT against Vmn1r10: the z-score is inactive: 1.59.
As for GGAAUGGAAAAACAAAAAGTT against Slc45a2, the figure is inactive: -0.756; as for GGAUGAAGACCCAUAUGUGTT against Ap1b1, inactive: -0.287.
As for GGUGAGGAGGUACCAGGUATT against Nthl1, the figure is inactive: -1.61.
The value for CGUCAUUGGCCUUCAAAUGTT against Tagln was inactive: -0.645.
For the sequence CCAUCAUGAACACCAAGCUTT against Olfr464, the z-score was inactive: -1.26.
The value for GGAUGGGCAAAAAGUUGACTT against Timm10 was inactive: -0.689; that for GGAGAAAGCUACUUAUAAGTT against Fbxo17 was inactive: -0.541; that for GGUUUUGAGCAAAAUUCUATT against Nrd1 was inactive: 0.985.
The value for CCGUUGGAUAAUGUCACAUTT against Stx4a was inactive: 1.73; that for GCUUAUUGUCAUGAUCAUATT against Hsd17b7 was inactive: -0.0998.
The value for GGAGCUGAUUUUCCUAAAGTT against Clec2i was inactive: 0.358; that for GGCGUGUUUUAUGUAUAACTT against Acsl3 was inactive: -0.099.
In the case of GCUCGUCAGAGACAAGCAUTT against Ptcd2, the z-score is inactive: 1.79.
As for GCCCAAGGAUUGGCAAAAGTT against Foxj1, the figure is inactive: -0.678; as for CGAAAGAGAGAGUGGGUGATT against Cdh3, inactive: -0.572.
The value for CCUACCUCUUGUUGGAAAATT against Fbxo15 was inactive: -0.134; that for GCAAAUGGUGCAUACGUGATT against Slc35d1 was inactive: 0.211.
As for GCUGAAUGCCAUAAACAGATT against Srms, the figure is inactive: 0.87.
For the sequence GGCAAGCAUAAAGAUGAAUTT against Sema6d, the z-score is inactive: -0.242.
The value for GGAAUUUUAUGCCAAGAAUTT against Hip1r was active: -3.89; that for GGUGUUUACUCCGUACCCATT against Tbrg4 was inactive: -2; that for GGAUCAAUAAGGAAUCUCUTT against Ugp2 was inactive: -0.417.
The value for GCAGUUGGUAUUGUUAACUTT against Maml1 was inactive: -0.0252.
As for GGUGAUGAUCUUGUGCCACTT against Rtp4, the figure is inactive: -0.367.
Consider GGUGUGGAGUAUGUAUGCUTT against Aplp1, for which the z-score is inactive: -1.11.
Turning to GGAGAUGGUUGGAUCAUUCTT against Arhgef25, the z-score was inactive: -0.158.
As for GGACCUAUUACACACUUGUTT against Mtfmt, the figure is inactive: -0.211; as for GGAAGCACUAUAGCCUCAGTT against Olfr39, inactive: 1.68; as for “GGAAAAGAAACCAGUUUCUTT against C230012O17Rik”, active: -2.07.
As for GGUAAGUAUACAAAGAUACTT against Cdc27, the figure is inactive: -1.41.
The value for GGACCUGUAUUCACACCUUTT against Wdr61 was inactive: 0.0931; that for GGCCACAAUUAAUUUUUUGTT against Luzp2 was inactive: -0.541.
For the sequence GCAACAAUGUGGUUCCUAUTT against Rab11a, the z-score was inactive: 0.616.
The value for GGACCUGGAGAAAUUGAAGTT against Nlrp6 was inactive: 1.82; that for CCUACGAGUAUUCAGAAAGTT against Snx13 was inactive: -1.15.
As for CCUCUUUUUACUUGCCUAATT against Rassf1, the figure is inactive: 0.65; as for GCUGGAGACAUUCGGUGAUTT against Efcab12, inactive: -0.227.
As for CCUCGACUUUUAUUUGGAUTT against Smg6, the figure is inactive: -0.0389.
